The values below come from paper doi:10.1101/078337.

No constants are given. Whether binding was seen depends on the method and setting. Binding seen in cells or lysates may run through a third protein. Binding can be weak; no strength is given. For part of these data: Sequences can lack the tags named with a protein.

In test [1] the target is T1, Flag-SMN (Drosophila SMN from the Flag-Smn^WT transgene) (Drosophila melanogaster) (UniProt Q9VV74).
T1 sequence: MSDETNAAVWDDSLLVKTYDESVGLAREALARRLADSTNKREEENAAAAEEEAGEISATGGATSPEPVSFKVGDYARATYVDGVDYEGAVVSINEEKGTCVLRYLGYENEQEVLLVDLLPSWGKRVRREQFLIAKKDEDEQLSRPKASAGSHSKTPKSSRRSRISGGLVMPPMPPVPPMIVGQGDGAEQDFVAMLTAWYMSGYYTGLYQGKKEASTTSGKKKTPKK
The test is described as follows: co-IP.

Test [2] addresses Flag-Slmb (Drosophila Slmb, in S2 cells) (Drosophila). The test is described as follows: co-IP.

For the molecule “supernumerary limbs (Slmb), endogenous in Drosophila embryos”, in test [1], the binding result is reported as “binds”.

With Tubulin (Drosophila), in test [1], the binding entry is recorded as “no binding”.

B1: endogenous SMN of Drosophila S2 cells (protein, UniProt Q9VV74 1-226)
chain: T1 sequence
On to B1, for which, in test [2], the binding result was “binds”.
